{
  "source": "paper PMC12431657",
  "about": "“Discovery and mechanistic insights of dibenzoylmethane as a broad spectrum inhibitor of coronavirus” (PLOS Pathogens, 2025)",
  "system": "HCoV-229E",
  "parameters": "species or system Huh-7; HTS, protection from HCoV-229E induced cell death, luminescent cell viability (CellCounting-Lite 2.0), inhibition rate",
  "note": "Counter-ions that a name gives are not always drawn. Like-named read-outs stand apart in the source and are kept apart here. In all, about 3,300 compounds went through this assay and about 95 (3%) showed an effect of 50% or more. The list shows a part of the results.",
  "data": [
    {"smiles": "C[C@@]12C[C@@H](c3ccoc3)OC(=O)[C@@H]1CC[C@]1(C)[C@H]2[C@@H]2C=C[C@@]1(O)C(=O)O2", "note": "[Columbin]", "values": [
      {"measurement": "229E Inhibition rate", "setting": "24 h, 10 µM; inhibitor", "result": 9.6, "unit": "%"}
    ]},
    {"smiles": "C/C=C(/C)C(=O)O[C@H]1[C@@H]2[C@H](C)C(=O)O[C@@H]2C[C@@H](C)[C@@H]2C=CC(=O)[C@]21C", "note": "[Brevilin A]", "values": [
      {"measurement": "229E Inhibition rate", "setting": "24 h, 10 µM; inhibitor", "result": 29.3, "unit": "%"}
    ]},
    {"smiles": "CCN1C[C@]2(C)CC[C@H](OC)[C@@]34C1[C@]1(OCO[C@@]15C[C@H](OC)[C@H]1C[C@]3(O)[C@@H]5[C@H]1OC)[C@@H](OC(C)=O)[C@H]24", "note": "[Deltaline]", "values": [
      {"measurement": "229E Inhibition rate", "setting": "24 h, 10 µM; inhibitor", "result": 2.6, "unit": "%"}
    ]},
    {"smiles": "COC1=C[C@@H]2[C@@H]3Cc4ccc(OC)c(O)c4[C@]2(CCN3C)CC1=O", "note": "[Sinomenine]", "values": [
      {"measurement": "229E Inhibition rate", "setting": "24 h, 10 µM, inhibitor", "result": 23.8, "unit": "%"}
    ]},
    {"smiles": "O=c1ccc2ccc3occc3c2o1", "note": "[Angelicin]", "values": [
      {"measurement": "229E Inhibition rate", "setting": "24 h, 10 µM; inhibitor", "result": 9.8, "unit": "%"}
    ]},
    {"smiles": "COc1ccc(/C=C/c2cc(OC)cc(OC)c2)cc1", "note": "[trans-Trimethoxyresveratrol]", "values": [
      {"measurement": "229E Inhibition rate", "setting": "24 h, 10 µM; inhibitor", "result": 38.6, "unit": "%"}
    ]},
    {"smiles": "C[C@@H]1CC[C@@]2(OC1)O[C@H]1[C@@H](O)[C@H]3[C@@H]4CC[C@H]5C[C@@H](O[C@@H]6O[C@H](CO)[C@H](O[C@@H]7O[C@H](CO)[C@@H](O)[C@H](O[C@@H]8OC[C@@H](O)[C@H](O)[C@H]8O)[C@H]7O[C@@H]7O[C@H](CO)[C@H](O)[C@H](O[C@@H]8O[C@H](CO)[C@@H](O)[C@H](O)[C@H]8O)[C@H]7O)[C@H](O)[C@H]6O)[C@H](O)C[C@]5(C)[C@H]4CC[C@]3(C)[C@H]1[C@@H]2C", "note": "[Digitonin]", "values": [
      {"measurement": "229E Inhibition rate", "setting": "24 h post infection, 1 h compound pre-incubation; 10 µM; inhibitor", "result": 13.7, "unit": "%"}
    ]},
    {"smiles": "Oc1c(Br)cccc1Br", "note": "[2,6-Dibromophenol]", "values": [
      {"measurement": "229E Inhibition rate", "setting": "24 h, 10 µM; inhibitor", "result": 21.2, "unit": "%"}
    ]},
    {"smiles": "CC(C)[C@@H]1NC(=O)[C@H](C)OC(=O)[C@@H](C(C)C)NC(=O)[C@@H](C(C)C)OC(=O)[C@H](C(C)C)NC(=O)[C@H](C)OC(=O)[C@@H](C(C)C)NC(=O)[C@@H](C(C)C)OC(=O)[C@H](C(C)C)NC(=O)[C@H](C)OC(=O)[C@@H](C(C)C)NC(=O)[C@@H](C(C)C)OC1=O", "note": "[Valinomycin]", "values": [
      {"measurement": "229E Inhibition rate", "setting": "24 h, 10 µM; inhibitor", "result": 90.8, "unit": "%"}
    ]},
    {"smiles": "C[C@H]1CCCC(=O)CCC/C=C/c2cc(O)cc(O)c2C(=O)O1", "note": "[Zearalenone]", "values": [
      {"measurement": "229E Inhibition rate", "setting": "24 h, 10 µM; inhibitor", "result": 43.3, "unit": "%"}
    ]},
    {"smiles": "C[C@H]1CCC[C@@H](O)CCCCCc2cc(O)cc(O)c2C(=O)O1", "note": "[Beta-Zearalanol]", "values": [
      {"measurement": "229E Inhibition rate", "setting": "24 h, 10 µM; inhibitor", "result": 0, "unit": "%"}
    ]},
    {"smiles": "CC(=O)OC(C)(C)/C=C/C(=O)[C@](C)(O)[C@H]1[C@H](O)C[C@@]2(C)[C@@H]3CC=C4[C@H](C[C@H](O)C(=O)C4(C)C)[C@]3(C)C(=O)C[C@]12C", "note": "[Cucurbitacin B]", "values": [
      {"measurement": "229E Inhibition rate", "setting": "24 h, 10 µM; inhibitor", "result": 36.8, "unit": "%"}
    ]},
    {"smiles": "CC1=C[C@@H]2C(=O)[C@]3(C=C(C)[C@H](O)[C@@]3(O)[C@@H]1O)[C@H](C)C[C@@H]1[C@H]2C1(C)C", "note": "[20-Deoxyingenol]", "values": [
      {"measurement": "229E Inhibition rate", "setting": "24 h, 10 µM; inhibitor", "result": 10.8, "unit": "%"}
    ]},
    {"smiles": "CC(C)=CCCC1=CC(=O)c2c(O)ccc(O)c2C1=O", "note": "[Deoxyshikonin]", "values": [
      {"measurement": "229E Inhibition rate", "setting": "24 h, 10 µM; inhibitor", "result": 9.8, "unit": "%"}
    ]},
    {"smiles": "CCC(=O)c1cc2c(cc1O)OCO2", "note": "[Kakuol]", "values": [
      {"measurement": "229E Inhibition rate", "setting": "24 h, 10 µM; inhibitor", "result": 8.6, "unit": "%"}
    ]},
    {"smiles": "N[C@@H](CNC(=O)C(=O)O)C(=O)O", "note": "[Dencichine]", "values": [
      {"measurement": "229E Inhibition rate", "setting": "24 h, 10 µM; inhibitor", "result": 6.8, "unit": "%"}
    ]},
    {"smiles": "CCN1C[C@]2(COC)[C@H](O)C[C@H](OC)[C@@]34[C@@H]5C[C@]6(O)[C@@H](OC)C[C@@](OC(C)=O)([C@H]5[C@H]6OC(=O)c5ccccc5)[C@@H]([C@H](OC)[C@H]23)[C@@H]14", "note": "[Indaconitine]", "values": [
      {"measurement": "229E Inhibition rate", "setting": "24 h, 10 µM; inhibitor", "result": 10.3, "unit": "%"}
    ]},
    {"smiles": "Cc1ccc(C=O)cc1", "note": "[p-Tolualdehyde]", "values": [
      {"measurement": "229E Inhibition rate", "setting": "24 h, 10 µM; inhibitor", "result": 23.1}
    ]},
    {"smiles": "COC1=C[C@@H]2[C@@H]3Cc4ccc(OC)c(O)c4[C@]2(CCN3C)CC1=O", "note": "[Sinomenine hydrochloride]", "values": [
      {"measurement": "229E Inhibition rate", "setting": "24 h, 10 µM, inhibitor", "result": 38.1, "unit": "%"}
    ]},
    {"smiles": "Cc1cc(=O)[nH]c(=O)[nH]1", "note": "[6-Methyluracil]", "values": [
      {"measurement": "229E Inhibition rate", "setting": "24 h, 10 µM; inhibitor", "result": 41.3}
    ]},
    {"smiles": "C=C1[C@H](OC(=O)c2ccccc2)C[C@H]2[C@@H](/C=C(\\C)C(=O)[C@@]3(OC(C)=O)C[C@H](C)[C@H](OC(=O)c4ccccc4)[C@@H]3[C@H]1OC(C)=O)C2(C)C", "note": "[Euphorbia Factor L2]", "values": [
      {"measurement": "229E Inhibition rate", "setting": "24 h, 10 µM; inhibitor", "result": 27.4, "unit": "%"}
    ]},
    {"smiles": "C/C=C1\\C[C@@H](C)[C@](O)(CO)C(=O)OCC2=CC[N+]3([O-])CC[C@@H](OC1=O)[C@@H]23", "note": "(some centres unmarked) [Usaramine N-oxide]", "values": [
      {"measurement": "229E Inhibition rate", "setting": "24 h, 10 µM; inhibitor", "result": 19.1, "unit": "%"}
    ]},
    {"smiles": "CCN1C[C@]2(COC)CC[C@H](OC)[C@]34C1[C@H](C[C@H]23)[C@@]1(O)C[C@H](OC)[C@H]2C[C@@H]4[C@@H]1[C@H]2O", "note": "[Talatisamine]", "values": [
      {"measurement": "229E Inhibition rate", "setting": "24 h, 10 µM; inhibitor", "result": 24, "unit": "%"}
    ]},
    {"smiles": "CC(C)=CCC/C(C)=C/CC/C(C)=C/CC[C@]1(C)CCc2cc(O)c(C)c(C)c2O1", "note": "[γ-Tocotrienol]", "values": [
      {"measurement": "229E Inhibition rate", "setting": "24 h, 10 µM; inhibitor", "result": 20.7}
    ]},
    {"smiles": "C[C@]12CC[C@@H](O)C[C@@H]1CC[C@@H]1[C@@H]2CC[C@]2(C)C(=O)CC[C@@H]12", "note": "[Androsterone]", "values": [
      {"measurement": "229E Inhibition rate", "setting": "24 h, 10 µM; inhibitor", "result": 52.3, "unit": "%"}
    ]},
    {"smiles": "COc1ccc(C=O)cc1OC", "note": "[Veratraldehyde]", "values": [
      {"measurement": "229E Inhibition rate", "setting": "24 h, 10 µM; inhibitor", "result": 17.4, "unit": "%"}
    ]},
    {"smiles": "CO[C@H]1CC[C@@H](O[C@H]2C[C@H]([C@]3(C)CC[C@]4(C[C@H](O)[C@@H](C)[C@@H]([C@@H](C)/C=C(\\C)C(=O)[C@H](C)C[C@H](C)C(=O)O)O4)O3)O[C@]3(O[C@@H]([C@H]4O[C@@](O)(CO)[C@H](C)C[C@@H]4C)C[C@@H]3C)[C@@H]2C)O[C@@H]1C", "note": "[Dianemycin]", "values": [
      {"measurement": "229E Inhibition rate", "setting": "24 h, 10 µM, inhibitor", "result": 1, "unit": "%"}
    ]},
    {"smiles": "C[C@]12CC[C@H](O)C[C@H]1CC[C@@H]1[C@@H]2[C@H](O)C[C@]2(C)[C@@H](c3ccc(=O)oc3)CC[C@]12O", "note": "[Gamabufotalin]", "values": [
      {"measurement": "229E Inhibition rate", "setting": "24 h, 10 µM; inhibitor", "result": 25.5, "unit": "%"}
    ]},
    {"smiles": "O=c1ccc2c(O)c3ccoc3cc2o1", "note": "[Bergaptol]", "values": [
      {"measurement": "229E Inhibition rate", "setting": "24 h, 10 µM; inhibitor", "result": 33.3, "unit": "%"}
    ]},
    {"smiles": "CC(C)=CCC[C@H](C(=O)O)[C@H]1CC[C@]2(C)C3=C(CC[C@@]12C)[C@@]1(C)CCC(=O)C(C)(C)[C@H]1CC3", "note": "[β-Elemonic acid]", "values": [
      {"measurement": "229E Inhibition rate", "setting": "24 h, 10 µM; inhibitor", "result": 15.7, "unit": "%"}
    ]},
    {"smiles": "COC(=O)C1=CCCNC1", "note": "[Guvacoline (hydrochloride)]", "values": [
      {"measurement": "229E Inhibition rate", "setting": "24 h, 10 µM; inhibitor", "result": 8.9, "unit": "%"}
    ]},
    {"smiles": "C[C@]12CCC(=O)C=C1CC[C@@H]1[C@@H]2C(=O)C[C@]2(C)C(=O)CC[C@@H]12", "note": "[Adrenosterone]", "values": [
      {"measurement": "229E Inhibition rate", "setting": "24 h, 10 µM; inhibitor", "result": 14.3, "unit": "%"}
    ]},
    {"smiles": "O=Cc1ccc[nH]1", "note": "[Pyrrole-2-carboxaldehyde]", "values": [
      {"measurement": "229E Inhibition rate", "setting": "24 h, 10 µM; inhibitor", "result": 21.6}
    ]},
    {"smiles": "O=C(O)CCCCCCCCCO", "note": "[10-Hydroxydecanoic acid]", "values": [
      {"measurement": "229E Inhibition rate", "setting": "24 h, 10 µM; inhibitor", "result": 13.7, "unit": "%"}
    ]},
    {"smiles": "O=C(O)c1cc2c(c3c1c([N+](=O)[O-])cc1ccccc13)OCO2", "note": "[Aristolochic acid B]", "values": [
      {"measurement": "229E Inhibition rate", "setting": "24 h, 10 µM; inhibitor", "result": 0, "unit": "%"}
    ]}
  ]
}
